± gives the standard deviation of the averaged measurements. The entries are a selection whose mix differs from that of the whole data set. Most values lie at the level of the controls, where differences are scatter.
The targets below were run with Nc1ncnc2c1ncn2[C@@H]1O[C@H](COP(=O)(O)OP(=O)(O)NP(=O)(O)O)[C@@H](O)[C@H]1O [adenylyl imidodiphosphate] (assay: NP40-soluble protein abundance relative to vehicle (solubility fold change) (ratio); higher = more soluble protein in presence of AMP-PNP). Details: concentration: 0.1mM.
Summary of the method: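 Jurkat crude lysate (Dounce-homogenised) was treated with eight concentrations from 0.1 to 10 mM for 10 min at room temperature, then 3 min at 37 °C. It was solubilised with 0.8% NP40 and benzonase (60 min, 4 °C) and ultracentrifuged, and the supernatant was TMT-labelled for LC-MS/MS. Intensities were vsn-normalised, and the value is the fold change against the NP40-processed vehicle per replicate, from three independent experiments.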

Protein sequences, listed by entry. Tags and fused reporters are not part of them. Lines headed by an entry give the natural chain unless they say otherwise; changes in a name come on top.
UniProt Q9Y281, whole entry: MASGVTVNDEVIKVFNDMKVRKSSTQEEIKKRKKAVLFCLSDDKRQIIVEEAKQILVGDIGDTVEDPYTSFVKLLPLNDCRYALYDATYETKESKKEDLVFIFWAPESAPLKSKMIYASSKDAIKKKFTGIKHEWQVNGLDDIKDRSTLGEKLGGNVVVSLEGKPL
UniProt Q9Y244: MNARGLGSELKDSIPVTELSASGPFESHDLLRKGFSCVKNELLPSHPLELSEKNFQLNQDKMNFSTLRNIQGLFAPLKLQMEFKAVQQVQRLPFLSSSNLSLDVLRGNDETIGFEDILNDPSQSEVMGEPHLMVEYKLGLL
UniProt Q9UJY4: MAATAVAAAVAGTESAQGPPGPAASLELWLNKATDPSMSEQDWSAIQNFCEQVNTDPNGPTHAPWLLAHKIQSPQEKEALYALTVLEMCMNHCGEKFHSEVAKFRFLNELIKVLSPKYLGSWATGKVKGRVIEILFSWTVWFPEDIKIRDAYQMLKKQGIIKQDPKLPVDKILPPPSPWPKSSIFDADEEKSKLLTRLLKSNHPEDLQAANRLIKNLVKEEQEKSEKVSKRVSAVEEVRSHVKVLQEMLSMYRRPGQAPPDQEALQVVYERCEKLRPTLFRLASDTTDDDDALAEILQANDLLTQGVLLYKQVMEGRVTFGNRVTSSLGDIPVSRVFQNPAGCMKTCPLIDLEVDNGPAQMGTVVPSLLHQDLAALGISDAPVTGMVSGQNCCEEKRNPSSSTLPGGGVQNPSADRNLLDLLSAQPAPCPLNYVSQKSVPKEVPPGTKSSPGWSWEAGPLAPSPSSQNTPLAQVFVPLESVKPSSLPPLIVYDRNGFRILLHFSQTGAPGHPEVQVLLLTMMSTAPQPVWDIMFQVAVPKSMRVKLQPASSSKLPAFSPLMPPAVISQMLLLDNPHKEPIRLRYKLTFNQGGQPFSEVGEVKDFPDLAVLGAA
UniProt Q9Y2I7: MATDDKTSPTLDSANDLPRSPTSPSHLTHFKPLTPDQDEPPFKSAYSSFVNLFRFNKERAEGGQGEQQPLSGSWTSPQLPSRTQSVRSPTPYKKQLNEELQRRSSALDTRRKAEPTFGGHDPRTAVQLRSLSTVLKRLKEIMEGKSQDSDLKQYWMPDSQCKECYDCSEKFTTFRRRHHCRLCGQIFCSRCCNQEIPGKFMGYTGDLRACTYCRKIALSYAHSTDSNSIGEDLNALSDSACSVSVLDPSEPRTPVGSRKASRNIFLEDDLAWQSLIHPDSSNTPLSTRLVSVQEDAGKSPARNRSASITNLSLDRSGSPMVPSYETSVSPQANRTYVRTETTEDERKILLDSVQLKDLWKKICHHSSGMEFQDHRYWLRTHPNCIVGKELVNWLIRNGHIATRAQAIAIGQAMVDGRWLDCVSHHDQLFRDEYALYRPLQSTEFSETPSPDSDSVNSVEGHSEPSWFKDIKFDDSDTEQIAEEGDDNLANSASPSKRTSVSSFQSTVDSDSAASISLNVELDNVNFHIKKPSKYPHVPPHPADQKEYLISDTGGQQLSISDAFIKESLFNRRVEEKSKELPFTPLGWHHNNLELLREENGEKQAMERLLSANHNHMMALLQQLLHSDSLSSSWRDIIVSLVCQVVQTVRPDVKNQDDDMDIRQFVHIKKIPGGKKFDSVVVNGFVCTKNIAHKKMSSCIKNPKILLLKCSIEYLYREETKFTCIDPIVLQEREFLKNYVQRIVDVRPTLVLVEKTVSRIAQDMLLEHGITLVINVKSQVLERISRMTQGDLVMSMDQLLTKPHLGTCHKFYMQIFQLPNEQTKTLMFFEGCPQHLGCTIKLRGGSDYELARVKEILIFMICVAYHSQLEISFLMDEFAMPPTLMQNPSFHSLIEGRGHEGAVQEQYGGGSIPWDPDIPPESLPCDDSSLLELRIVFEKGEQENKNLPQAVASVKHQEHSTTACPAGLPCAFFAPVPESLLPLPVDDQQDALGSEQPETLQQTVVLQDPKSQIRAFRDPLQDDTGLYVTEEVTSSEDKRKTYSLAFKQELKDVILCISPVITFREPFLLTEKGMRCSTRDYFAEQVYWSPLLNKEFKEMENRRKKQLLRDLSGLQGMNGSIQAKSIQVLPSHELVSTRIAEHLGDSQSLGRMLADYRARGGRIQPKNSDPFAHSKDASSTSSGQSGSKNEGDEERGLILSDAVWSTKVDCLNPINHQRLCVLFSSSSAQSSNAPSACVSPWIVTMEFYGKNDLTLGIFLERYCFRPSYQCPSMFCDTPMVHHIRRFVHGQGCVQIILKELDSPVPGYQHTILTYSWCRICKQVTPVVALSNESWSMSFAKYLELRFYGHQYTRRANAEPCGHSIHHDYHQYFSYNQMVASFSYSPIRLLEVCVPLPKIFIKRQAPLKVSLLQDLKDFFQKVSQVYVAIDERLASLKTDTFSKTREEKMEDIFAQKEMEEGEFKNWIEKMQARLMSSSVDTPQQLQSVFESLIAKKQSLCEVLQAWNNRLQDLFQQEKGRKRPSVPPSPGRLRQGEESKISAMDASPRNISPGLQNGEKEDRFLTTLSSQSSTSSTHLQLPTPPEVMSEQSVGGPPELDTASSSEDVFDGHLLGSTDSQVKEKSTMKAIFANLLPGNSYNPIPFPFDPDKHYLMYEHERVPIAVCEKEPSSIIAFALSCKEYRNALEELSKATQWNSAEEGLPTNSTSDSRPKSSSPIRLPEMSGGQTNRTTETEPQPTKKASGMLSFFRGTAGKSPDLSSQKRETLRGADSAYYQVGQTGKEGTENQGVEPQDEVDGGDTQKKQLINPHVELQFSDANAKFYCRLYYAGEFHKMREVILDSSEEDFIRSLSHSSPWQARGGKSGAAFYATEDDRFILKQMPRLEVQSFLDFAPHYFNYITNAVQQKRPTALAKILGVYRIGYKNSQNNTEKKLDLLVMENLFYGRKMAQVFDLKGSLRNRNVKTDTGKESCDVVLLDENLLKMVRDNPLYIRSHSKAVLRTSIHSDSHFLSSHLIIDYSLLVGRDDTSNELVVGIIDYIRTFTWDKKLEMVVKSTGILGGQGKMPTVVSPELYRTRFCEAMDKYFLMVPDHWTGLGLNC
UniProt Q9UHH9: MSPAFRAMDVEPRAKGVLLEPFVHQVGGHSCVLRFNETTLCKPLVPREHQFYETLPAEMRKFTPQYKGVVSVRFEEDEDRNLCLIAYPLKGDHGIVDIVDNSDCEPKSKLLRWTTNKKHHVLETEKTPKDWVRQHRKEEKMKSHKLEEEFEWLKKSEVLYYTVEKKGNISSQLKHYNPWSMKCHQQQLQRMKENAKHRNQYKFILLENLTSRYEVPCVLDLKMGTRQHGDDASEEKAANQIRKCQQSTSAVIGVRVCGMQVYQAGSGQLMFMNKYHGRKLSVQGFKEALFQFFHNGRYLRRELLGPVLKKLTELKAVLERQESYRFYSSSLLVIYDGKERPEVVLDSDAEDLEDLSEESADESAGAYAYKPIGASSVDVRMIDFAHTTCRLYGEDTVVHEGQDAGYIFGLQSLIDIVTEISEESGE
UniProt Q9UBV2: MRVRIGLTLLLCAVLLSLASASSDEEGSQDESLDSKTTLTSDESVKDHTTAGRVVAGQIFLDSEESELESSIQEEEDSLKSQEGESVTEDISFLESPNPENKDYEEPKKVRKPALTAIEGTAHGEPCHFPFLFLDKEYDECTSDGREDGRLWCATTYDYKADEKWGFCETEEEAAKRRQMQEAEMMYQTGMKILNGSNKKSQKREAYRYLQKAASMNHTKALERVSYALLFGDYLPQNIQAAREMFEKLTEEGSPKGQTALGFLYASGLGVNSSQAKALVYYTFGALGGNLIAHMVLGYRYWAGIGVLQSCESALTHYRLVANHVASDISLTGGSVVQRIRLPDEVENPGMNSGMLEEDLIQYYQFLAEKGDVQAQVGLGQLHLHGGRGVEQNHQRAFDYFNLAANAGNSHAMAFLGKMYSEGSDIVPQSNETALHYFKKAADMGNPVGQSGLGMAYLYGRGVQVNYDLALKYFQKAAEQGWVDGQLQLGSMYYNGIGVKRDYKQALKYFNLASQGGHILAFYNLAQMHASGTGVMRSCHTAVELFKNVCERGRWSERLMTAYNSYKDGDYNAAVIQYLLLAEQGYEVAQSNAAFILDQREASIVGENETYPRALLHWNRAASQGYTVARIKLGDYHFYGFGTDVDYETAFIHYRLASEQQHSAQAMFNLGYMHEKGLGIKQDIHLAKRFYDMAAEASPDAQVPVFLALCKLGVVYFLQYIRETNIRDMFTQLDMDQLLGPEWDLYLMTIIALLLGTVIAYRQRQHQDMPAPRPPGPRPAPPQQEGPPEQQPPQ
UniProt Q9UK59: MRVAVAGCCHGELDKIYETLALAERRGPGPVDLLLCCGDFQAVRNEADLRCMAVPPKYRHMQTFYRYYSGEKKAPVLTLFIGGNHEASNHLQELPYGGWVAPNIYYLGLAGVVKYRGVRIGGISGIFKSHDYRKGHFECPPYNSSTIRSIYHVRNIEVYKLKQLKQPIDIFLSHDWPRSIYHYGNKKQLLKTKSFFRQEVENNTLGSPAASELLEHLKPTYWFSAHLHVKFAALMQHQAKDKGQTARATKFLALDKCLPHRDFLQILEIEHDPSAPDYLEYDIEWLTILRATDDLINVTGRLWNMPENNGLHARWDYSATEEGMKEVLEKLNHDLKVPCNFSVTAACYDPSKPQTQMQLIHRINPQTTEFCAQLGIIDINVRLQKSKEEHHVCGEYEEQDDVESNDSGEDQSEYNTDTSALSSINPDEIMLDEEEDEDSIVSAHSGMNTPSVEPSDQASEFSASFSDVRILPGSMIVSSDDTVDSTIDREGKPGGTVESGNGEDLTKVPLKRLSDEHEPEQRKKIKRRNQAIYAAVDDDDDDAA
UniProt Q9UHC7: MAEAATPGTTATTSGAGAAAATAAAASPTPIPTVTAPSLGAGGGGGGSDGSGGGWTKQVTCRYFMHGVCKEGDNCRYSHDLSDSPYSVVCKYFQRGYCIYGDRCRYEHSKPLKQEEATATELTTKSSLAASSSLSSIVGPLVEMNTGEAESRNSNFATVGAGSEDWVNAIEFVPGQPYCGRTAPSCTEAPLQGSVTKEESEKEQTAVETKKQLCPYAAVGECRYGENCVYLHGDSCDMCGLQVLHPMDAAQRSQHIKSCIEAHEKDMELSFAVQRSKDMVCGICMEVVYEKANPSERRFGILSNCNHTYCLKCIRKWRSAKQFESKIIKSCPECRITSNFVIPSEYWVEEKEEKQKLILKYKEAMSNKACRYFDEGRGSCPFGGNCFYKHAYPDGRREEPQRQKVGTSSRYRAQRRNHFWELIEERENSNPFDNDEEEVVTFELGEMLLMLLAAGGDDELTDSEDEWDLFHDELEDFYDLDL
UniProt Q9UJX2, whole entry: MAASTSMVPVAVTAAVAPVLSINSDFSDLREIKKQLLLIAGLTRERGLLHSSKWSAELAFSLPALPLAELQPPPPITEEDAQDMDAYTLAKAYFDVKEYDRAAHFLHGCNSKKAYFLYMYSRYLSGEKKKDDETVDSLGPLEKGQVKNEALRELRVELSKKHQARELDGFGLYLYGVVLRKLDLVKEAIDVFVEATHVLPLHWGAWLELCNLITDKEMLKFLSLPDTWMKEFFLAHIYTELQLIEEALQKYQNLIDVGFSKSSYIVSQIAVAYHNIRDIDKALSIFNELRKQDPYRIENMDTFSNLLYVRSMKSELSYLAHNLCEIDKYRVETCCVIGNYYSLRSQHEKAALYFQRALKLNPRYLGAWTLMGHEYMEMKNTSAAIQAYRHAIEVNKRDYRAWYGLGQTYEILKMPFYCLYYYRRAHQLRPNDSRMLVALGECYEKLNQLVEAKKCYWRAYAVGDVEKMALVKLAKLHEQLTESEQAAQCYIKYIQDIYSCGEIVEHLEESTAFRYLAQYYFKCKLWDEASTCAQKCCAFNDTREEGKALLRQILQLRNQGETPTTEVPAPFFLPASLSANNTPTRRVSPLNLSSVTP
UniProt Q9UKV5, whole entry: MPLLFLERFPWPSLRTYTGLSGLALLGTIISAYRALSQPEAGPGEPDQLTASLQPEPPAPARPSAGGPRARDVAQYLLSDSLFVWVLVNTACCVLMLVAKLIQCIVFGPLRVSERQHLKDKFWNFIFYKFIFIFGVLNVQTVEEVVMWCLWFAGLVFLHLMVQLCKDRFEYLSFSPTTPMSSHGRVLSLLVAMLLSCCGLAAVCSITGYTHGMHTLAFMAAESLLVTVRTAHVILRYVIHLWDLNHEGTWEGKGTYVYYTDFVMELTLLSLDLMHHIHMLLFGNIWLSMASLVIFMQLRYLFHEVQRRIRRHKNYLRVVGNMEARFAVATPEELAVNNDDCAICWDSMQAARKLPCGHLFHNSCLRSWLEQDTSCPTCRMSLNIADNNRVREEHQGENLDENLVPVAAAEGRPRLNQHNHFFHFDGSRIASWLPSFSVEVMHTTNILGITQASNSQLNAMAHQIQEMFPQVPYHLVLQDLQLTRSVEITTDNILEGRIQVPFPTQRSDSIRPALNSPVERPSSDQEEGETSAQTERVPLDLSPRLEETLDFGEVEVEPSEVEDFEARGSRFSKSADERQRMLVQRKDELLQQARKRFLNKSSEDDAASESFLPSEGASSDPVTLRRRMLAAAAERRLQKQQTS

Target	NP40-soluble protein abundance
MRPS28 (UniProt Q9Y2Q9)	1.05 ± 0.035
TBK1 (UniProt Q9UHD2)	1.01 ± 0.029
CHORDC1 (UniProt Q9UHD1)	0.973 ± 0.016
UniProt Q9UII2	0.992 ± 0.053
PACSIN3 (UniProt Q9UKS6)	1 ± 0.032
KMT2B (UniProt Q9UMN6)	1.01 ± 0.014
PPM1H (UniProt Q9ULR3)	0.997 ± 0.048
UniProt Q9UHB9 and related entries	1 ± 0.023
MINPP1 (UniProt Q9UNW1)	1 ± 0.047

Same assay, conditions: concentration: 0.5mM

Target	NP40-soluble protein abundance
POLK (UniProt Q9UBT6)	0.999 ± 0.03
CFL2 (UniProt Q9Y281)	1.02 ± 0.051
THRAP3 (UniProt Q9Y2W1)	1.08 ± 0.032
POMP (UniProt Q9Y244)	1.03 ± 0.038
NAGK (UniProt Q9UJ70)	0.9974 ± 0.0024
DCTN4 (UniProt Q9UJW0)	0.995 ± 0.026
NENF (UniProt Q9UMX5)	0.97 ± 0.074
UFC1 (UniProt Q9Y3C8)	1.05 ± 0.08
UniProt Q9ULH7-4|Q9ULH7-5|Q9ULH7	0.987 ± 0.054
UniProt Q9UKT4 and related entries	0.976 ± 0.051
UniProt Q9UHW5 and related entries	0.998 ± 0.018
UniProt Q9UJY4 and related entries	0.9821 ± 0.005
UniProt Q9Y2I7	0.993 ± 0.038
UniProt Q9UHH9	1 ± 0.036
UniProt Q9Y2G2 and related entries	0.986 ± 0.017
RAB22A (UniProt Q9UL26)	1.02 ± 0.033
UniProt Q9UJX6 and related entries	0.978 ± 0.043
UniProt Q9UGR2 and related entries	0.979 ± 0.024
SEL1L (UniProt Q9UBV2)	1 ± 0.026

Target	NP40-soluble protein abundance
UniProt Q9ULD0	0.998 ± 0.018
DBR1 (UniProt Q9UK59)	0.988 ± 0.023
DDX52 (UniProt Q9Y2R4)	1.04 ± 0.046
VPS51 (UniProt Q9UID3)	1.03 ± 0.069
UniProt Q9UHC7 and related entries	1.04 ± 0.033
CDC23 (UniProt Q9UJX2)	1.01 ± 0.012
RAB21 (UniProt Q9UL25)	1.01 ± 0.044
APPL1 (UniProt Q9UKG1)	1.01 ± 0.035
AMFR (UniProt Q9UKV5)	0.986 ± 0.039
MRPS28 (UniProt Q9Y2Q9)	1.04 ± 0.081
TBK1 (UniProt Q9UHD2)	0.994 ± 0.041
CHORDC1 (UniProt Q9UHD1)	0.974 ± 0.043
UniProt Q9UII2	1.09 ± 0.12
PACSIN3 (UniProt Q9UKS6)	1.02 ± 0.071
KMT2B (UniProt Q9UMN6)	0.9953 ± 0.0028
PPM1H (UniProt Q9ULR3)	0.987 ± 0.041
UniProt Q9UHB9 and related entries	1 ± 0.028
MINPP1 (UniProt Q9UNW1)	1.02 ± 0.044
